Source: patent US10688099B2, “Methods for modulating the amount of RNA transcripts” (PTC Therapeutics, Inc., priority 2013, dated 2020)
The source gives many values for each of these; only a part stands here.

Test system: RNA isoforms in PNN 1-46 SMA type I patient-derived fibroblasts
Assay: RNA Abundance Modulation (RNA isoform abundance, iFPM, HiSeq RNA sequencing)
Type: cell-based, human
Details: 3 μM
Procedure: Cells from a cell line of interest are cultured in conditions sufficient to yield the number of cells capable of generating enough RNA for subsequent sequencing steps. Cells from the tested cell line are contacted with a compound described herein.
To culture said cells, they are seeded, at appropriate concentrations in a volume of media in a cell culture container and incubated for 4, 5, 6, 7, 8, 9, 10, or more hours. A concentrated solution of compound in a vehicle (e.g., DMSO) is then added in sufficient volume to result in the intended final concentration of the compound, for example 100 nM, 500 nM, 1 μM, 5 μM, 10 μM, 15 μM, 20 μM, or more. The cells may also be treated with vehicle alone, as a control. A number of replicates of each concentration or control may be made (e.g., 2 replicates). The cells are then incubated at a constant temperature appropriate for cell culture of the particular cell line (e.g., 37° C.) for 6, 12, 18, 24, 48, or more hours. After incubation, the growth medium is removed and the cells are washed with the appropriate buffer (e.g., PBS). Cells are then removed from adherence to the cell culture container by treatment with a solution containing trypsin, and the trypsin subsequently quenched with the appropriate volume of buffer (e.g., DMEM-FBS). The cells are then pelleted with gentle centrifugation (e.g., ≤90×g centrifugal force) and resuspended in a buffer to lyse the cells for extraction of RNA. The cell lysates may then be frozen (e.g., at −80° C.) or, alternately, may immediately be used in a procedure to purify the RNA (e.g. by use of the RNEASY PLUS® minikit). The RNA from cell lysates is eluted in the appropriate volume of buffer (e.g., RNEASE-FREE H2O®). The resulting purified RNA may then be sequenced (e.g., using RNASeq) or analyzed using a human exon array (e.g., by GENECHIP® human exon array) to determine changes in the RNA levels in those cells treated with compound compared to those cells treated only with DMSO. The purified RNA may also be quantified by other methods known in the art.
Using the RNA data obtained from sequencing, exon array, or other methods, a statistical analysis can reveal changes in the RNA levels of compound-treated compared with control. For example, t-test p-values may be calculated for the data obtained through sequencing and exon array methods in order to compare compound-treated cells to those treated with the DMSO control. […] Analysis of the sequencing and exon array data may then also yield predictions about the cause of the aberrant amount of an RNA transcript in the cells (e.g., perturbation of RNA splicing, RNA transcription, or RNA stability). These predictions may be further confirmed by methods known in the art. For example, RT-PCR and RT-qPCR may be used to confirm the change in amount of RNA transcripts for one or more particular transcripts of interest.
Following the methods described above in Example 1, PNN 1-46 SMA type I patient-derived fibroblasts were treated with 300 nM or 3 μM Compounds 774 and 808 in 0.5% DMSO.
700,000 cells were seeded in 10 mL of medium (DMEM plus 10% FBS) in a T-75 flask. Cells were allowed to attach for at least 4 hrs, after which 50 μL of a 200× compound solution (100% DMSO) was added to each well, and the plate was incubated at 37° C. for 24 hrs.
At the end of the incubation period, the supernatant was removed and the cells where washed with PBS. TrypLE (Invitrogen) express solution was added (e.g. 1.5 mL per one T75 flask). The flasks were incubated for 3 to 5 min at 37° C. The trypsin was then quenched, e.g., by adding 10 mL DMEM-FBS.
Next, the cells were pelleted using gentle centrifugation without exceeding 90×g centrifugal force. The supernatant was removed and the cell pellet was re-suspended in 600 μL RLT buffer (the RLT buffer was supplemented with beta-mercaptoethanol according to the RNeasy protocol manual) by pipetting up and down until the pellet was completely dissolved […]

CCc1nc(C)cn2nc(-c3cc(=O)n4cc(C5CCN(C)CC5)cc(C)c4n3)cc12 [Compound 774]
L2abs (Cpd-DMSO) (FLII NM_001256264): 7.28
abs (Cpd-DMSO) (FLII NM_001256264): 156 iFPM
amp FC (x + 1) (FLII NM_001256264): 156.56
ave Cpd (FLII NM_001256264): 0 iFPM
FC (x + 1) (FLII NM_001256265): 0.0658
L2FC (x + 1) (FLII NM_001256265): −3.925
L2abs (Cpd-DMSO) (FLII NM_001256265): 3.83
abs (Cpd-DMSO) (FLII NM_001256265): 14 iFPM
amp FC (x + 1) (FLII NM_001256265): 15.19
ave Cpd (FLII NM_001256265): 0 iFPM
FC (x + 1) (FLNB AF353666): 0.7328
L2FC (x + 1) (FLNB AF353666): −0.448
L2abs (Cpd-DMSO) (FLNB AF353666): −0.73
abs (Cpd-DMSO) (FLNB AF353666): 1 iFPM
amp FC (x + 1) (FLNB AF353666): 1.36
ave Cpd (FLNB AF353666): 1 iFPM
FC (x + 1) (FLNB NM_001457): 0.6887
L2FC (x + 1) (FLNB NM_001457): −0.538
L2abs (Cpd-DMSO) (FLNB NM_001457): 11.74
abs (Cpd-DMSO) (FLNB NM_001457): 3431 iFPM
amp FC (x + 1) (FLNB NM_001457): 1.45
ave Cpd (FLNB NM_001457): 7590 iFPM
FC (x + 1) (FLNB NM_001164317): 0.6357
L2FC (x + 1) (FLNB NM_001164317): −0.654
L2abs (Cpd-DMSO) (FLNB NM_001164317): 7.96
abs (Cpd-DMSO) (FLNB NM_001164317): 248 iFPM
amp FC (x + 1) (FLNB NM_001164317): 1.57
ave Cpd (FLNB NM_001164317): 433 iFPM
FC (x + 1) (FLNB NM_001164318): 0.3591
L2FC (x + 1) (FLNB NM_001164318): −1.478
L2abs (Cpd-DMSO) (FLNB NM_001164318): 9.58
abs (Cpd-DMSO) (FLNB NM_001164318): 768 iFPM
amp FC (x + 1) (FLNB NM_001164318): 2.78
ave Cpd (FLNB NM_001164318): 429 iFPM
FC (x + 1) (FLNB NM_001164319): 0.8989
L2FC (x + 1) (FLNB NM_001164319): −0.154
L2abs (Cpd-DMSO) (FLNB NM_001164319): 8.47
abs (Cpd-DMSO) (FLNB NM_001164319): 354 iFPM
amp FC (x + 1) (FLNB NM_001164319): 1.11
ave Cpd (FLNB NM_001164319): 3149 iFPM
FC (x + 1) (FNBP1 AK000975): 0.3901
L2FC (x + 1) (FNBP1 AK000975): −1.358
L2abs (Cpd-DMSO) (FNBP1 AK000975): 7.40
abs (Cpd-DMSO) (FNBP1 AK000975): 169 iFPM
amp FC (x + 1) (FNBP1 AK000975): 2.56
ave Cpd (FNBP1 AK000975): 107 iFPM
FC (x + 1) (FNBP1 AK001616): 1.6171
L2FC (x + 1) (FNBP1 AK001616): 0.693
L2abs (Cpd-DMSO) (FNBP1 AK001616): 6.61
abs (Cpd-DMSO) (FNBP1 AK001616): 98 iFPM
amp FC (x + 1) (FNBP1 AK001616): 1.62
ave Cpd (FNBP1 AK001616): 256 iFPM
FC (x + 1) (FNBP1 AK023681): 2.6266
L2FC (x + 1) (FNBP1 AK023681): 1.393
L2abs (Cpd-DMSO) (FNBP1 AK023681): 3.14
abs (Cpd-DMSO) (FNBP1 AK023681): 9 iFPM
amp FC (x + 1) (FNBP1 AK023681): 2.63
ave Cpd (FNBP1 AK023681): 13 iFPM
FC (x + 1) (FNBP1 BC143513): 0.6734
L2FC (x + 1) (FNBP1 BC143513): −0.571
L2abs (Cpd-DMSO) (FNBP1 BC143513): 8.65
abs (Cpd-DMSO) (FNBP1 BC143513): 401 iFPM
